Some of the results follow. The main result of the screen is listed elsewhere. These columns were measured beside it and carry no call. The list favours compounds with an active or inconclusive main result. Potencies come from curve fits of mixed quality, noted in brackets.

The assay in a line: qHTS Assay to Find Inhibitors of Chronic Active B-Cell Receptor Signaling. Particulars: ABC-DLBCL IkBa-CBG/CBR reporter, luminescence ratio (green luciferase fused to IkBa over red control in TMD8 lymphoma cells), 4 h. The method, boiled down:
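Concentration-response series (up to 46 uM) were applied to TMD8 dual-reporter cells for 4 h at 37C with doxycycline. Green/red ratio, after filter-overlap correction, defined %Activity; red signal alone was normalised to basal cells and zero luminescence.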
(qHTS replaces the single test concentration by a dilution series.)

The mark [1] stands for this setting: measured here: CBR red luminescence, cell number.
The mark [2] stands for this setting: measured here: IkBa-CBG green luminescence.

By AC50 is commonly meant the midpoint of the concentration-response curve, whichever way the signal moves. For `Cc1cc(C(=O)CN2C(=O)C(=O)N(C3CCCC3)C2=O)c(C)n1CCc1ccc(F)cc1`, under setting [1], the AC50 was 29.1 µM [falling, single point]. On the same count and under the same terms, with `CC(C)Cc1nc2sc3c(NCc4ccco4)ncnc3c2c2c1COC(C)(C)C2` the figure was 0.146 µM [rising, full curve, poor fit]; with `CCOC(=O)N1CCN(C(=O)CSc2nnc(Cn3c(=O)sc4ccccc43)n2C)CC1`, 0.0731 µM [rising, full curve, poor fit]; with `COc1cc(/C=N/OCC(=O)Nc2cc(C)cc(C)c2)ccc1OCc1ccc(Cl)cc1`, 0.731 µM [rising, full curve, poor fit]. In the case of `COc1cccc(N2CCN(S(=O)(=O)c3ccc(-c4coc(C)n4)cc3)CC2)c1`, under setting [1], the AC50 was 0.708 µM [rising, full curve, poor fit]. In the case of `CCSc1nc2ccccc2n1CCC(=O)O`, the AC50 under setting [1] is 6.51 µM [rising, full curve, poor fit].

`Cc1cccn2c(NCc3ccc4c(c3)OCO4)c(-c3ccc(O)cc3)nc12`: under setting [1], the AC50 was 12.6 µM [falling, single point]. With `O=C1COc2ccc(OCc3ccc(F)cc3)cc21`, the AC50 under setting [1] is 3.55 µM [rising, partial curve]. With `CCOC(=O)c1ccc(N/C=C\C(=O)c2cccc(OC)c2)cc1`, under setting [1], the AC50 was 0.116 µM [falling, full curve]. As to `C=CCn1c(O)c(N=NC(=S)Nc2ccccc2F)c2cc(S(=O)(=O)N3CCOCC3)ccc21`, the AC50 reads like this: under setting [1], 35.5 µM [rising, single point]; under setting [2], 3.55 µM [falling, full curve]. Turning to `O=C(NC(=S)Nc1sc2c(c1C(=O)O)CCCC2)c1ccccc1`, the concentration at half-maximal activity (AC50) under setting [1] was 14.1 µM [falling, partial curve, poor fit]. On the same count and under the same terms, with `Cn1c(=O)c2nc(-c3ccc(Cl)cc3Cl)oc2c2ccccc21` the figure was 1.64 µM [rising, single point]; with `Cc1ccc2c(c1)c1ncnc(N3CCOCC3)c1n2C`, 1.12 µM [rising, partial curve, poor fit]. Still for that read-out and setting: the same measure for `CCOC(=O)C1C(=O)NC(N2CCN(c3ccccc3)CC2)=NC1c1ccco1` (stereo not drawn): 2.06 µM [rising, partial curve, poor fit]; for `COc1ccc(NC(=O)c2ccc(COCC(F)(F)C(F)F)cc2)cc1OC`: 4.61 µM [rising, single point]. On the same count and under the same terms, with `CCCc1cc(N2CCC(C(N)=O)CC2)nc(-c2ccccc2)n1` the figure was 35.5 µM [falling, single point]; with `COc1cccc(N/C=C/C(=O)c2ccc(C)cc2)c1`, 35.5 µM [falling, single point]. For the compound `O=C(N/N=C/c1cc(Br)c(O)c(Br)c1O)c1cccnc1`, under setting [1], the AC50 was 11.2 µM [falling, partial curve, poor fit].

In the case of `COc1ccc(C2=Nn3c(nnc3-c3ccccc3OC)SC2)cc1OC1CCCC1`, the AC50 is 5.8 µM [falling, single point] under setting [1] and 2.91 µM [falling, full curve] under setting [2]. On to `CC1=CCC(COC(=O)Nc2ccccc2)CC1` (stereo not drawn), for which the AC50 under setting [1] was 6.31 µM [falling, full curve]. Consider `CCCCN(C(=O)CSc1nnc(-c2ccc(Cl)cc2)o1)c1c(N)n(CC(C)C)c(=O)[nH]c1=O`, for which the concentration at half-maximal activity (AC50) under setting [1] was 23.1 µM [rising, single point].

For `CC(C)Nc1nc(-c2cccnc2)nc(-c2ccccc2)c1C#N`, the AC50 under setting [1] was 0.251 µM [rising, full curve, poor fit]. On the same count and under the same terms, the same measure for `CN1CCCC(OC(=O)c2ccc(S(=O)(=O)N(C)C)cc2)C1` (stereo not drawn): 2.24 µM [falling, single point]. With `O=[N+]([O-])c1cccc(-c2ccc(/C=N/NC(=S)NCc3ccco3)o2)c1`, under setting [1], the AC50 was 3.98 µM [rising, full curve]. Take `COc1ccc(-c2oc(/N=C/N3CCCC3)c(C#N)c2-c2ccc(OC)cc2)cc1`: the half-maximal activity concentration (AC50) under setting [1] was 13 µM [rising, single point].

Turning to `COc1cccc(/C=N/NC(=O)C(=O)NCc2cccnc2)c1OC`, the half-maximal activity concentration (AC50) under setting [1] is 35.5 µM [rising, single point]. Regarding `O=C(/C=C/c1cccc([N+](=O)[O-])c1)N1CCN(Cc2ccccc2)CC1`, under setting [1], the AC50 is 31.6 µM [falling, single point]. Turning to `Cc1ccc(C)c2[nH]c(=O)c(CN(Cc3ccc4c(c3)OCO4)Cc3nnnn3Cc3ccco3)cc12`, the AC50 under setting [1] was 11.2 µM [falling, partial curve, poor fit].

Regarding `O=C(NCc1ccco1)c1cnn2c1NC(c1ccccc1)CC2C(F)(F)F` (stereo not drawn), under setting [1], the AC50 is 4.47 µM [falling, single point]. Still for that read-out and setting: with `Cn1c(SCc2ccccc2)nnc1-c1cccs1` the figure was 35.5 µM [falling, single point]; with `Cc1c(Cl)c([N+](=O)[O-])nn1CC(=O)NCCCN1CCOCC1`, 0.2 µM [rising, full curve, poor fit]; with `COc1ccc(OC)c(-c2c[n+](=O)c3c(n2[O-])CCCC3)c1`, 7.94 µM [rising, partial curve, poor fit]. Same read-out and setting: with `COC(=O)c1ccccc1NC(=O)NC1CCC(C)CC1` (stereo not drawn) the figure was 7.08 µM [falling, partial curve, poor fit]. Still for that read-out and setting: the same measure for `COc1c(C(=O)Nc2c(C)n(C)n(-c3ccccc3)c2=O)ccc2ccccc12`: 29.1 µM [rising, single point]; for `CN(C)c1cccc(C(=O)Nc2nc3ccccc3[nH]2)c1`: 3.16 µM [falling, full curve]; for `CN(Cc1ccccc1)C(=O)COc1cc(=O)n(C)c2ccccc12`: 23.1 µM [falling, single point].

`CCCCN(C)CC(O)Cn1cc(/C=C/C(=O)c2ccc(C)cc2)c2ccccc21` (stereo not drawn): the AC50 under setting [1] was 15.8 µM [falling, single point].

In the case of `CCN(CC)C(=O)c1cc2sc3ccccc3c2s1`, the concentration at half-maximal activity (AC50) under setting [1] is 17.8 µM [falling, single point]. `O=C1NC(=O)C2(COC(c3ccccc3Cl)OC2)S1` (stereo not drawn): the AC50 under setting [1] is 23.1 µM [rising, partial curve, poor fit]. Same read-out and setting: with `CCOc1ccccc1-c1nc(-c2ccc(NC(=O)Cc3ccccc3OC)cc2)no1` the figure was 29.1 µM [falling, single point]; with `COc1cccc(NC(=O)c2cnc[nH]2)c1`, 12.6 µM [falling, partial curve, poor fit]. On to `COC(=O)c1ccc(C)c(NS(=O)(=O)c2ccc3c(c2)OCCO3)c1`, for which the AC50 is, setting by setting: under setting [1], 20.6 µM [rising, partial curve]; under setting [2], 16.4 µM [falling, partial curve]. As for `O=C(COC(=O)Cc1ccc(Cl)cc1)Nc1ccccc1F`, under setting [1], the AC50 was 1.26 µM [falling, full curve, poor fit]. For the compound `CCN(CCNC(=O)c1ccc(CSc2nc3ccncc3[nH]2)cc1)c1ccccc1`, the AC50 under setting [2] is 7.31 µM [falling, partial curve, poor fit]. For `Cc1occc1-c1nnc(SCC(=O)Nc2ccc(F)cc2)n1Cc1ccccc1`, under setting [1], the AC50 was 2.59 µM [rising, single point].

Turning to `NC(=O)c1ccccc1N/C=C/C(=O)c1cccs1`, the AC50 under setting [1] was 7.31 µM [falling, partial curve]. For the compound `CC(=O)c1sc(NC(=O)COc2c(C)cc(Cl)cc2C)nc1C`, the AC50 under setting [1] was 0.282 µM [falling, full curve, poor fit]. With `Cc1cc(C(=O)NCCN2CCN(c3cccc(Cl)c3)CC2)n(-c2ccccc2)n1`, the AC50 under setting [2] was 23.1 µM [falling, single point]. As to `Cc1[nH]c2ccccc2c1/C=N/NC(=O)c1ccc(N)cc1`, the AC50 under setting [1] was 10 µM [falling, partial curve, poor fit]. On the same count and under the same terms, the same measure for `Cc1cc(F)ccc1NC(=O)c1cnccn1`: 10 µM [rising, partial curve, poor fit]. On the same count and under the same terms, the same measure for `CCc1ccc2oc(-c3ccc(N)cc3)nc2c1`: 10.3 µM [falling, partial curve, poor fit]; for `O=C(Nc1ccccc1N1CCOCC1)c1ccc2c(c1)OCCO2`: 6.31 µM [falling, single point].

Turning to `COc1cc(NC(=O)CN2C(=O)NC(C)(c3ccc4ccccc4c3)C2=O)c(C)cc1[N+](=O)[O-]` (stereo not drawn), under setting [1], the AC50 was 1.64 µM [falling, partial curve, poor fit]. The same measure, in the same setting: the same measure for `CCOC(=O)CNC(=O)CSc1ncccc1-c1nc2ccccc2[nH]1`: 0.794 µM [falling, full curve]; for `Cc1cccc(C(=O)Nc2ccc3ccccc3c2)c1`: 7.94 µM [falling, partial curve]; for `Cc1cc(C)n(-c2ccc(C(=O)Nc3cc(S(=O)(=O)N(C)C)ccc3Cl)cc2)n1`: 0.651 µM [falling, full curve, poor fit]. For the compound `Cc1cccc(NS(=O)(=O)c2ccc(C(=O)NCC3(N4CCCCC4)CCCCC3)cc2)c1C`, the AC50 under setting [1] is 4.11 µM [falling, single point]. Turning to `Cc1cc(C)c2nc(/N=C(\N)NC(=O)c3ccccc3)nc(C)c2c1`, under setting [1], the half-maximal activity concentration (AC50) was 0.316 µM [falling, full curve]. The same measure, in the same setting: with `COc1cccc(-c2noc(-c3ccoc3C)n2)c1` the figure was 3.98 µM [rising, single point]; with `CN(CC(=O)Nc1ccccc1Br)Cc1nc2ccccc2c(=O)[nH]1`, 11.2 µM [rising, partial curve, poor fit]. On the same count and under the same terms, the same measure for `Cc1ccc(C(=O)Nc2cccnc2Oc2ccc(Cl)cc2)cc1`: 3.55 µM [rising, single point]; for `O=C(NCCC1=CCCCC1)C1CCCN(c2nc3ccccc3o2)C1` (stereo not drawn): 0.355 µM [falling, full curve, poor fit]. Turning to `O=C(CN1CCN(S(=O)(=O)c2ccccc2)CC1)Nc1ccccc1C(=O)c1ccccc1`, the AC50 under setting [1] is 20.6 µM [falling, partial curve, poor fit]. In the case of `CCN1CCN(Cc2ccc(NC(=O)c3ccc(C)c(NC(=O)c4nccnc4N)c3)cc2C(F)(F)F)CC1`, the AC50 is 20 µM [falling, partial curve, poor fit] under setting [1] and 4.47 µM [rising, full curve, poor fit] under setting [2].

Source of the values: PubChem BioAssay AID493014 (National Center for Advancing Translational Sciences (NCATS), 2011).
